Measured values taken from PMC12339401.
No constants are given. Whether binding was seen depends on the method and setting. In cells and extracts the contact can be indirect. Here binding means that the protein was enriched with, or labelled near, the bait; the list need not be complete. Blank lines part the entries; values can stand above or below the binder they belong to.

The chains behind the UniProt entries cited, without tags or fusion partners. Residues count along the entry.
UniProt O60238, residues 1-182: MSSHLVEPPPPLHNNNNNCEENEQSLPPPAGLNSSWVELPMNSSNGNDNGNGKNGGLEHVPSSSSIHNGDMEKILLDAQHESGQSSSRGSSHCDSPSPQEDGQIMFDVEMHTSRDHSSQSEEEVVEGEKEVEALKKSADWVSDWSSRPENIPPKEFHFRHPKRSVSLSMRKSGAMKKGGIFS

Tests used:
[1] = target: BNIP3(1–158)-GST (human); assay: affinity purification with mass spectrometry; beads precoated with NIX(1–182)-GST or BNIP3(1–158)-GST, incubated overnight with HeLa cell lysate (20 mM Tris-HCl pH 7.4, 150 mM KCl, 2.5 mM MgCl2, 0.5% NP-40), mass spectrometry; only the target purified
[2] = target: NIX(1–182)-GST (human) (UniProt O60238); assay: as above

binding [1]: binds
binding [2]: binds
B1: PPTC7 (protein, UniProt Q8NI37 69-304)
chain: RSADVLGVADGVGGWRDYGVDPSQFSGTLMRTCERLVKEGRFVPSNPIGILTTSYCELLQNKVPLLGSSTACIVVLDRTSHRLHTANLGDSGFLVVRGGEVVHRSDEQQHYFNTPFQLSIAPPEAEGVVLSDSPDAADSTSFDVQLGDIILTATDGLFDNMPDYMILQELKKLKNSNYESIQQTARSIAEQAHELAYDPNYMSPFAQFACDNGLNVRGGKPDDITVLLSIVAEYTD

binding [2]: binds
B2: WIPI2 (endogenous) (protein, UniProt Q9Y4P8 1-454)
chain: MNLASQSGEAGAGQLLFANFNQDNTEVKGASRAAGLGRRAVVWSLAVGSKSGYKFFSLSSVDKLEQIYECTDTEDVCIVERLFSSSLVAIVSLKAPRKLKVCHFKKGTEICNYSYSNTILAVKLNRQRLIVCLEESLYIHNIRDMKVLHTIRETPPNPAGLCALSINNDNCYLAYPGSATIGEVQVFDTINLRAANMIPAHDSPLAALAFDASGTKLATASEKGTVIRVFSIPEGQKLFEFRRGVKRCVSICSLAFSMDGMFLSASSNTETVHIFKLETVKEKPPEEPTTWTGYFGKVLMASTSYLPSQVTEMFNQGRAFATVRLPFCGHKNICSLATIQKIPRLLVGAADGYLYMYNLDPQEGGECALMKQHRLDGSLETTNEILDSASHDCPLVTQTYGAAAGKGTYVPSSPTRLAYTDDLGAVGGACLEDEASALRLDEDSEHPPMILRTD
